# No constants are given. Whether binding was seen depends on the method and setting. Some results given as binding are weak or reduced against the parent protein; the word gives no strength. Sequences can lack the tags named with a protein.
# Chains of the proteins cited; added tags and fusions are not shown.
# UniProt Q39026: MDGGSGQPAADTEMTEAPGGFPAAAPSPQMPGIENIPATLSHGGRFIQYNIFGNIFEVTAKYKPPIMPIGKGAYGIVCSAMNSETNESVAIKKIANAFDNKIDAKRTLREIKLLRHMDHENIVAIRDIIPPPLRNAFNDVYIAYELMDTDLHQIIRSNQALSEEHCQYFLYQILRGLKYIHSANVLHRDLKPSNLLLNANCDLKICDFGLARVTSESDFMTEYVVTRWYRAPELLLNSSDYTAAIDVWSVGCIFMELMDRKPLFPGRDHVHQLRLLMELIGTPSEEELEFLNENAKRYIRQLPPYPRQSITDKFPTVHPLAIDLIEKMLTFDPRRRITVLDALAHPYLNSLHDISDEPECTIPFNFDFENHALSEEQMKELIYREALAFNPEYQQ
# T1: ABI5-Binding Protein 3 (AFP3), yeast two-hybrid fusions (Arabidopsis thaliana) (UniProt Q94F39)
# T1 sequence: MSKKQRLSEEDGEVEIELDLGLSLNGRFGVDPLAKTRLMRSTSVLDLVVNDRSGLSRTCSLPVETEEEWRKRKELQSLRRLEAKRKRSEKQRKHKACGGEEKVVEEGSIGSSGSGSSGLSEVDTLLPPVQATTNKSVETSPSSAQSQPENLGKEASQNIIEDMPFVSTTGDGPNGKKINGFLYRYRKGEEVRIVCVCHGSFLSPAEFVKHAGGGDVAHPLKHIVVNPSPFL
# T2: ABI5-Binding Protein 4 (AFP4), yeast two-hybrid fusions (Arabidopsis thaliana) (UniProt Q9S7Z2)
# T2 sequence: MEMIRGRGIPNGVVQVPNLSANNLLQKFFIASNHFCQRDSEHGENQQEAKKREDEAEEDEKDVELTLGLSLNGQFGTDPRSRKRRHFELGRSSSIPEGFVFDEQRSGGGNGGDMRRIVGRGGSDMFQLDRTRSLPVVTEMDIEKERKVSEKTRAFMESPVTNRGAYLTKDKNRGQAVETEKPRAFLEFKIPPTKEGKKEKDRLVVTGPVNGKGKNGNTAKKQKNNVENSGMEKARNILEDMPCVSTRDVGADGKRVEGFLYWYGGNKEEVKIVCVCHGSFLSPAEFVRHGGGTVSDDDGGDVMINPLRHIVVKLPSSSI
# T3: MPK3, BD fusion (Arabidopsis thaliana) (UniProt Q39023)
# T3 sequence: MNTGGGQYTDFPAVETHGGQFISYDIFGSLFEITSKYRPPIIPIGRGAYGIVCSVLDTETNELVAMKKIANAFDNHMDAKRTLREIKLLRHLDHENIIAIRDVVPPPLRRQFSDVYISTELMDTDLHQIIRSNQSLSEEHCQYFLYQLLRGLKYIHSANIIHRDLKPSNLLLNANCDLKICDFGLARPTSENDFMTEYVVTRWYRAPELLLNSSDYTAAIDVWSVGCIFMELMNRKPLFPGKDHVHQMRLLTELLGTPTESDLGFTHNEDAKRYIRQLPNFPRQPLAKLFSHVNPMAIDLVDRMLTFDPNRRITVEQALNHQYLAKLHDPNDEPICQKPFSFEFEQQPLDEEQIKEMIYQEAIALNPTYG
# T4: MPK7, yeast two-hybrid fusion (Arabidopsis thaliana) (UniProt Q39027)
# T4 sequence: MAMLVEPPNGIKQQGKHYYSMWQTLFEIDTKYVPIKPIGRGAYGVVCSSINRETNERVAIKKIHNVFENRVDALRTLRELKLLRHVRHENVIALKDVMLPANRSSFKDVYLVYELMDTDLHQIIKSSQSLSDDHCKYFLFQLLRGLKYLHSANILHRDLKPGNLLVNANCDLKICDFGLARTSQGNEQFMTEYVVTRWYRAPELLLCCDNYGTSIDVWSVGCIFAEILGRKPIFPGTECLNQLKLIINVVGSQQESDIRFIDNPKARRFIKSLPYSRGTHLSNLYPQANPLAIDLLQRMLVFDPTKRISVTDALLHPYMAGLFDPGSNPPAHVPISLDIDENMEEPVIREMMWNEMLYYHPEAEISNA
# T5: SnRK2.10, BD fusion (Arabidopsis thaliana) (UniProt Q9C958)
# T5 sequence: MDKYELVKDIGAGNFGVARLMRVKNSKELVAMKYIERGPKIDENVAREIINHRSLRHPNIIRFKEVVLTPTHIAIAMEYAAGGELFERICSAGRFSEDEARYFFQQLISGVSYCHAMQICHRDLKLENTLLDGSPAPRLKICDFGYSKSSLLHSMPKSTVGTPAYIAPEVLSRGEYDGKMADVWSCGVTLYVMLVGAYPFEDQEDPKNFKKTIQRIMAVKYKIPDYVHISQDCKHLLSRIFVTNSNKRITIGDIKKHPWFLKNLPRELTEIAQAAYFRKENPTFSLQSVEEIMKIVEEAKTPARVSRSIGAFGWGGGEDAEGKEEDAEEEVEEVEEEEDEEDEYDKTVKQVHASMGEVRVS
# T6: SnRK2.2, BD fusion (Arabidopsis thaliana) (UniProt Q39192)
# T6 sequence: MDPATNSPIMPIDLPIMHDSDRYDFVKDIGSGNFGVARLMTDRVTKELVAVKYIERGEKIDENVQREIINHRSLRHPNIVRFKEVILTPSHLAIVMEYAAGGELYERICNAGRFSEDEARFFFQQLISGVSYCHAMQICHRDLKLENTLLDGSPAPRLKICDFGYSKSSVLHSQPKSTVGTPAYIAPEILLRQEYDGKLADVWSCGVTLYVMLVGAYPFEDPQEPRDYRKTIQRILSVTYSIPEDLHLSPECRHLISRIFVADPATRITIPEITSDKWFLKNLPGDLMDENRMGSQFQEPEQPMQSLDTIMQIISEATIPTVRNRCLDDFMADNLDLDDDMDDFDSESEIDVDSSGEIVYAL
# T7: SnRK2.3, BD fusion (Arabidopsis thaliana) (UniProt Q39193)
# T7 sequence: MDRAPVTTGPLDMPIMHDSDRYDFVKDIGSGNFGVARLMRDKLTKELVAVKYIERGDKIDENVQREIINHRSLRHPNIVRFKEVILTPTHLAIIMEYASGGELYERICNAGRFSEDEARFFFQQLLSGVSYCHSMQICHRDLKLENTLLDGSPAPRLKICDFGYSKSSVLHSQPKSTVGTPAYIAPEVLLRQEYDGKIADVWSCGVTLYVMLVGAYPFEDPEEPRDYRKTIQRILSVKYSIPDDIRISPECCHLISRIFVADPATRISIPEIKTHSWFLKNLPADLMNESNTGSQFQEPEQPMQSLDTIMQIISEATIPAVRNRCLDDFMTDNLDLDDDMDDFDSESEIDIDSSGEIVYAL
# T8: SnRK2.6, BD fusion (Arabidopsis thaliana) (UniProt Q940H6)
# T8 sequence: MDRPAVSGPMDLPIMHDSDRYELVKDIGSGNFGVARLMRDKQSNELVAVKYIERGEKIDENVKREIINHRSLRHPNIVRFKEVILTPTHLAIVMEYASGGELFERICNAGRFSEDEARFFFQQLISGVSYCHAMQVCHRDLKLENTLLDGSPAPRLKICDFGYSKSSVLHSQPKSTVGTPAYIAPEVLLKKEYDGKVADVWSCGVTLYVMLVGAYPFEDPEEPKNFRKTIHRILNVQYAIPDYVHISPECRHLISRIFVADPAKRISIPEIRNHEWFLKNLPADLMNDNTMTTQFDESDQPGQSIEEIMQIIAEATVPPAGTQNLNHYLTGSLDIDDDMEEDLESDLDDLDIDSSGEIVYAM
# T9: ABI5-Binding Protein 2 (AFP2), yeast two-hybrid fusions (Arabidopsis thaliana) (UniProt Q9LMX5)
# T9 sequence: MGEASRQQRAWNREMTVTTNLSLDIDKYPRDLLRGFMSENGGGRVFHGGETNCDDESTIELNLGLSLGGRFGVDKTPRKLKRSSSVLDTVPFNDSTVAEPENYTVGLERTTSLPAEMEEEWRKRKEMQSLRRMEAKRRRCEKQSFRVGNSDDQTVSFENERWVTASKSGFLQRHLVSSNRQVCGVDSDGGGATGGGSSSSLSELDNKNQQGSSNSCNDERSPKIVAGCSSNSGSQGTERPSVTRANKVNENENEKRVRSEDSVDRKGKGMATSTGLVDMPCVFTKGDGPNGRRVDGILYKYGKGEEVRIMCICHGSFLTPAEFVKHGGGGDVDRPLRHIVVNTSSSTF
# Experiments:
# Experiment in all cases: two-hybrid
# [1] = molecular target: T1, ABI5-Binding Protein 3 (AFP3), yeast two-hybrid fusions (Arabidopsis thaliana)
# [2] = molecular target: T2, ABI5-Binding Protein 4 (AFP4), yeast two-hybrid fusions (Arabidopsis thaliana)
# [3] = molecular target: T3, MPK3, BD fusion (Arabidopsis thaliana)
# [4] = molecular target: MPK6, BD fusion (Arabidopsis thaliana) (UniProt Q39026)
# [5] = molecular target: T4, MPK7, yeast two-hybrid fusion (Arabidopsis thaliana)
# [6] = molecular target: T5, SnRK2.10, BD fusion (Arabidopsis thaliana)
# [7] = molecular target: T6, SnRK2.2, BD fusion (Arabidopsis thaliana)
# [8] = molecular target: T7, SnRK2.3, BD fusion (Arabidopsis thaliana)
# [9] = molecular target: T8, SnRK2.6, BD fusion (Arabidopsis thaliana)
# [10] = molecular target: T9, ABI5-Binding Protein 2 (AFP2), yeast two-hybrid fusions (Arabidopsis thaliana)
binding [1],binding [2],binding [3],binding [4],binding [5],binding [6],binding [7],binding [8],binding [9],binding [10],Molecule
no binding,no binding,,,,,,,,,"ABA-… 1 (ABI1), AD fusion (from UniProt P49597 1-434) (enzyme)"
,,binds,binds,binds,no binding,no binding,binds,binds,,"ABI5-Binding Protein 3 (AFP3), yeast two-hybrid fusions (protein, UniProt Q94F39 1-231) MSKKQRLSEEDGEVEIELDLGLSLNGRFGVDPLAKTRLMRSTSVLDLVVNDRSGLSRTCSLPVETEEEWRKRKELQSLRRLEAKRKRSEKQRKHKACGGEEKVVEEGSIGSSGSGSSGLSEVDTLLPPVQATTNKSVETSPSSAQSQPENLGKEASQNIIEDMPFVSTTGDGPNGKKINGFLYRYRKGEEVRIVCVCHGSFLSPAEFVKHAGGGDVAHPLKHIVVNPSPFL"
,,binds,binds,binds,no binding,no binding,binds,binds,,"ABI5-Binding Protein 1 (AFP1), yeast two-hybrid fusions (protein, UniProt Q9LQ98 1-345) MAEANERSKEMARSNSCVFPRDLLQRFISNSVEGEDDDEEEDDDEIELNLGLSLGGRFGVDKSNKLVRSSSVVVTMPLFREDHHHHQAAAMITTKVSTETVAGATRGTGLMRTTSLPAESEEEWRKRKEMQTLRRMAAKRRRSEKLRTGVGGGNSNNPEEAATATASRRRGRPSSGLPRWSATANKSGLLRQHSAGLDSLQVSGESLGGGRAAGSSSSVSELETKASSDEARSLPSTTQPQQETTTKPTNRLRRLSSVDMNMKMEPQGKGKSEMPCVFTKGDGPNGKRVDGILYRYGSGEEVRIMCVCHGDFLSPADFVKHAGGPHVDHPLRHIVVNTSSPSNLL"
,,binds,binds,binds,no binding,binds,binds,binds,binds,"ABI5-Binding Protein 2 (AFP2), yeast two-hybrid fusions (protein, UniProt Q9LMX5 1-348) MGEASRQQRAWNREMTVTTNLSLDIDKYPRDLLRGFMSENGGGRVFHGGETNCDDESTIELNLGLSLGGRFGVDKTPRKLKRSSSVLDTVPFNDSTVAEPENYTVGLERTTSLPAEMEEEWRKRKEMQSLRRMEAKRRRCEKQSFRVGNSDDQTVSFENERWVTASKSGFLQRHLVSSNRQVCGVDSDGGGATGGGSSSSLSELDNKNQQGSSNSCNDERSPKIVAGCSSNSGSQGTERPSVTRANKVNENENEKRVRSEDSVDRKGKGMATSTGLVDMPCVFTKGDGPNGRRVDGILYKYGKGEEVRIMCICHGSFLTPAEFVKHGGGGDVDRPLRHIVVNTSSSTF"
